# ± gives the standard deviation of the averaged measurements. The list shows a part of the results, in another mix than the full data. Most values lie at the level of the controls, where differences are scatter.
# The chains behind the UniProt entries cited, without tags or fusion partners. Where a name states a change or a piece, a line headed by the entry shows the natural chain unless it says otherwise.
# UniProt Q9H6W3: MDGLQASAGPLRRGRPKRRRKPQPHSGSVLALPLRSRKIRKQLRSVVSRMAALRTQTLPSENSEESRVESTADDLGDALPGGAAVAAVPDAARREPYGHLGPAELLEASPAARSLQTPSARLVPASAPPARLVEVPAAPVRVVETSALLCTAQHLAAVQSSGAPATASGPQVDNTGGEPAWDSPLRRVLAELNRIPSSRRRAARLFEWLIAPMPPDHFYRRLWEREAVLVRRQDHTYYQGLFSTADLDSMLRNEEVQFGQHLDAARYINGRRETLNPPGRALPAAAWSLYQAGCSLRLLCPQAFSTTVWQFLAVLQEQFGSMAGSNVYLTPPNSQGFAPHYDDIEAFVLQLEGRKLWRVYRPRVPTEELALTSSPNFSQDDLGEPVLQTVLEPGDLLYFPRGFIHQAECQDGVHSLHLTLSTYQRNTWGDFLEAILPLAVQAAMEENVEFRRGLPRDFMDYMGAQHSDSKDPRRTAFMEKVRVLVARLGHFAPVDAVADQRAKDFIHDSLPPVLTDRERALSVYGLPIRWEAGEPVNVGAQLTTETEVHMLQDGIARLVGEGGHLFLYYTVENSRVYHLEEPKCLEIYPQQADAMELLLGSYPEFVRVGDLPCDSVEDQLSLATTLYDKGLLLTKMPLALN
# UniProt Q9H6Y2: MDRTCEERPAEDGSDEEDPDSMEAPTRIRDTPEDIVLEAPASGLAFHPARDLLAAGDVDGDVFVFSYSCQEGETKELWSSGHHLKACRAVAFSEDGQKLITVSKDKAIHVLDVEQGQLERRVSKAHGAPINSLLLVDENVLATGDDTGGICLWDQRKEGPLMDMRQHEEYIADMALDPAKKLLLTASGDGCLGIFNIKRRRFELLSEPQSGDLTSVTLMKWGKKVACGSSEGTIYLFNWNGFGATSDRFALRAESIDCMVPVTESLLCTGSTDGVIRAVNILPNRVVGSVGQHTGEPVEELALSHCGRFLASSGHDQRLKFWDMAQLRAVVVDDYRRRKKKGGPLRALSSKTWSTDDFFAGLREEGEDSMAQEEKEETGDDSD
# UniProt Q9GZP9: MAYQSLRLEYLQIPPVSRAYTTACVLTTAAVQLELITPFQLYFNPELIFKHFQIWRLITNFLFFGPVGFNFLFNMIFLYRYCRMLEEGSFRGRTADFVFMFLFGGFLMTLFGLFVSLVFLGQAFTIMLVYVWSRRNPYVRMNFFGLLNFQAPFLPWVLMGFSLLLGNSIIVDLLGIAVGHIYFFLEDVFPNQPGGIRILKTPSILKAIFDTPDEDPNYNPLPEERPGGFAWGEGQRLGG
# UniProt Q9H9P8: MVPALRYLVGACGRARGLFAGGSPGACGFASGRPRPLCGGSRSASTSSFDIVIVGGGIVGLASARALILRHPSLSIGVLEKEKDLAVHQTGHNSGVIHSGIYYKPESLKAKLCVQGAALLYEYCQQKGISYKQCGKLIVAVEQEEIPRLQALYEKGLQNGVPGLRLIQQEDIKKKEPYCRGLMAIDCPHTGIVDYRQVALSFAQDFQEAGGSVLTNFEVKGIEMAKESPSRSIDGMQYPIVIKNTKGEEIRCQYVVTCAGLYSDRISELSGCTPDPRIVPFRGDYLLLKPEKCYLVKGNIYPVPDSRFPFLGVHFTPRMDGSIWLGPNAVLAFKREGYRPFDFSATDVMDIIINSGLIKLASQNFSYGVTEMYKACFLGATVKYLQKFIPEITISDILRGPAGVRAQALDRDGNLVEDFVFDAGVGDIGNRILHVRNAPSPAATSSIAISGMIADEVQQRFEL
# UniProt Q9HCG8: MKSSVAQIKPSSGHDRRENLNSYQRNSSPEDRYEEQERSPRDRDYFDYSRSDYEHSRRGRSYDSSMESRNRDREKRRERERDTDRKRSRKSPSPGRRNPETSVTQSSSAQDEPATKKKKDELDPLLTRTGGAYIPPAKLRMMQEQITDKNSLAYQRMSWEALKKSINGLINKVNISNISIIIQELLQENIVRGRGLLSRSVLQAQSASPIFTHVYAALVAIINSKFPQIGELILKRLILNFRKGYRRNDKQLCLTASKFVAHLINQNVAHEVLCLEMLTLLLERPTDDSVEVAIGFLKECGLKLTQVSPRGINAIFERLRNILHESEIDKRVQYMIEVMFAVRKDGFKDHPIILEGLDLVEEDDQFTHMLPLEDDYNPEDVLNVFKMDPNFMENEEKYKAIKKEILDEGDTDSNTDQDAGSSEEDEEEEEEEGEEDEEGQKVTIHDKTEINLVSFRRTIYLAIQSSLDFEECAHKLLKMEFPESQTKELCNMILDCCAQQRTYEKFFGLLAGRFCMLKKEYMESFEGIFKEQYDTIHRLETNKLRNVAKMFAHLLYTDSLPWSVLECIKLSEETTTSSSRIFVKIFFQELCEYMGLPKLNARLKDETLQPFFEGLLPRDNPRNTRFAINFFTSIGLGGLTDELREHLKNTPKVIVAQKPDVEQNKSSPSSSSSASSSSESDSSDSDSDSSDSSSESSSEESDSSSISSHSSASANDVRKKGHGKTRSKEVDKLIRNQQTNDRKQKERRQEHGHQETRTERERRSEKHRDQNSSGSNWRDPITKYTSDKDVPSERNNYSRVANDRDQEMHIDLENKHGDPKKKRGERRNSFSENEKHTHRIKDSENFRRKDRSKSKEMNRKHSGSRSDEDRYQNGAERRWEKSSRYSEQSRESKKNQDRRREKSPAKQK
# UniProt Q9H3K6: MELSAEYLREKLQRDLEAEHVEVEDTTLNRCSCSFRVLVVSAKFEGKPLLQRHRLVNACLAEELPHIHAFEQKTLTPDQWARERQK
# UniProt Q9H974: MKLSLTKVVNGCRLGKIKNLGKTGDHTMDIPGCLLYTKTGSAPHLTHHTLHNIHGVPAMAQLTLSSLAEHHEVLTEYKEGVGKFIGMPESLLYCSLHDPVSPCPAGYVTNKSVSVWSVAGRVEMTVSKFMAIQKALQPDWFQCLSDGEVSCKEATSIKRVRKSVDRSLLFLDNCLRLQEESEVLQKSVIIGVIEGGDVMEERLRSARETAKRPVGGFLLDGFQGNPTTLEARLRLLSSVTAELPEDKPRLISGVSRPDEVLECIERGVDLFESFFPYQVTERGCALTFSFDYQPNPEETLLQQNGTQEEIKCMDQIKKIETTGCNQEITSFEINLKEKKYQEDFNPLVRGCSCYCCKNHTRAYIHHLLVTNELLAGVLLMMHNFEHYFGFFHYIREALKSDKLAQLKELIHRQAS
# UniProt Q9HDC9: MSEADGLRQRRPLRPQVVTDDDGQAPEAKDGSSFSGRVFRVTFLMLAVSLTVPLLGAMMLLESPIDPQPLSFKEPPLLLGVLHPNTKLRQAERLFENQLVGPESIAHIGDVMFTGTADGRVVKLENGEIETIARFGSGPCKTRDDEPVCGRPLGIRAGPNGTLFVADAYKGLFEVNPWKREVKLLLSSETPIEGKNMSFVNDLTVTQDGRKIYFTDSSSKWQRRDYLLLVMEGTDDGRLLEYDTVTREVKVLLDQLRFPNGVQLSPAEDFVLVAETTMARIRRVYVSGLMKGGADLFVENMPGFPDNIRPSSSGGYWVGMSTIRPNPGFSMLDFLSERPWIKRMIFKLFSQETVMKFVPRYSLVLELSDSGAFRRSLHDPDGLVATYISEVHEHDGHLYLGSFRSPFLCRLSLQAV
# UniProt Q9HD45: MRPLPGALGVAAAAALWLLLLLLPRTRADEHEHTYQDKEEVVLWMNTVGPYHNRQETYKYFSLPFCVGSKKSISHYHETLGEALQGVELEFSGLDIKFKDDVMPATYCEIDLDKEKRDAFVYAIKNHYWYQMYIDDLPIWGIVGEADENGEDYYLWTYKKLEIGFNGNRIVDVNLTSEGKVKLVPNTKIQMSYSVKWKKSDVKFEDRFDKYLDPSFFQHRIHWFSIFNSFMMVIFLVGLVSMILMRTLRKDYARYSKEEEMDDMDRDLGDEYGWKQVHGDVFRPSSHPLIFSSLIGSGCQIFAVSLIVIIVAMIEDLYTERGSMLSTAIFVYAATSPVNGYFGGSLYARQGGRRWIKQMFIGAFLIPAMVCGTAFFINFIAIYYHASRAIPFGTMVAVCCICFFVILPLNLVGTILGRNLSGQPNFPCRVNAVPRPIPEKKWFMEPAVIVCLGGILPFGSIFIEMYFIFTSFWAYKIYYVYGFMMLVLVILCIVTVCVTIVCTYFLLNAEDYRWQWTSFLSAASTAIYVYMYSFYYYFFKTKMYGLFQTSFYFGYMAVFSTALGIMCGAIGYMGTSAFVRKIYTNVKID
# UniProt Q9HD20: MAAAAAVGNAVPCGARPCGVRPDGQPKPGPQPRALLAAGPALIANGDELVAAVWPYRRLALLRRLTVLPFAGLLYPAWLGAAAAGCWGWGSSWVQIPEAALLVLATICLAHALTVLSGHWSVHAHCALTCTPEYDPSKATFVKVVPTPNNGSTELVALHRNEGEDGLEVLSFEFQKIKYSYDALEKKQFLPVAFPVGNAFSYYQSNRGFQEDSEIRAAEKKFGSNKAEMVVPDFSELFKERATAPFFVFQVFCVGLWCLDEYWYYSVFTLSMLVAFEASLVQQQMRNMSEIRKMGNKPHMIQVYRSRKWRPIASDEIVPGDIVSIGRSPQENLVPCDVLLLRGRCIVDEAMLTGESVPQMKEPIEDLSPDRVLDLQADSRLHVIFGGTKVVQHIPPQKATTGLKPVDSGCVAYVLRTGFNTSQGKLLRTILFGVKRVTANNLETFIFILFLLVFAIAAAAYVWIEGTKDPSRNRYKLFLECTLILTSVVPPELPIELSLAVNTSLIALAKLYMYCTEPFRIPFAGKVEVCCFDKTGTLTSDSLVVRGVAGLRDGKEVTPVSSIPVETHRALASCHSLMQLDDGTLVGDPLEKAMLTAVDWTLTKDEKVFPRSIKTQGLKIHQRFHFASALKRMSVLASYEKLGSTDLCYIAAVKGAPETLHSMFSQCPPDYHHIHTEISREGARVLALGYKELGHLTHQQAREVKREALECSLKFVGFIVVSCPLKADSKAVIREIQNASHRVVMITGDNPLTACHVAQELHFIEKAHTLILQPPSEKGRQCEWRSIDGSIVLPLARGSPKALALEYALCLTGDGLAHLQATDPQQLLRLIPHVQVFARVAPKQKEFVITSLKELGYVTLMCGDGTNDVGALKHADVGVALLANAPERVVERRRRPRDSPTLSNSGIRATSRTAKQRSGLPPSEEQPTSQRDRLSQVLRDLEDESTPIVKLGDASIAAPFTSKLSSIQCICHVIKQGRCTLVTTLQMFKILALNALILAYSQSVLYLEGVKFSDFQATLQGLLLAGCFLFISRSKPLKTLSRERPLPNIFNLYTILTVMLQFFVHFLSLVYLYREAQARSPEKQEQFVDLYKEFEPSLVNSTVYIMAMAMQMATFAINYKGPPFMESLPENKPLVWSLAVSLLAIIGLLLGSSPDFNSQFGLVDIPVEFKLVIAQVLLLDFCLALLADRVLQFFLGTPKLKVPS
# UniProt Q9HBH5: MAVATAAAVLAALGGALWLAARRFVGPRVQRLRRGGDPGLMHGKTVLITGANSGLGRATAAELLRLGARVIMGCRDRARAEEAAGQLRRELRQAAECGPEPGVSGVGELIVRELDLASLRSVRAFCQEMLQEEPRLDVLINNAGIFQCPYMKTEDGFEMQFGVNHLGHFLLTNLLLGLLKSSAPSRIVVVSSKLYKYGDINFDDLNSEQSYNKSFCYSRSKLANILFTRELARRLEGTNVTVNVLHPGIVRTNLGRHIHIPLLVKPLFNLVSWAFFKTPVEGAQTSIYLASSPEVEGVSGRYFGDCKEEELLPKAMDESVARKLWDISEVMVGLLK
# UniProt Q9H993: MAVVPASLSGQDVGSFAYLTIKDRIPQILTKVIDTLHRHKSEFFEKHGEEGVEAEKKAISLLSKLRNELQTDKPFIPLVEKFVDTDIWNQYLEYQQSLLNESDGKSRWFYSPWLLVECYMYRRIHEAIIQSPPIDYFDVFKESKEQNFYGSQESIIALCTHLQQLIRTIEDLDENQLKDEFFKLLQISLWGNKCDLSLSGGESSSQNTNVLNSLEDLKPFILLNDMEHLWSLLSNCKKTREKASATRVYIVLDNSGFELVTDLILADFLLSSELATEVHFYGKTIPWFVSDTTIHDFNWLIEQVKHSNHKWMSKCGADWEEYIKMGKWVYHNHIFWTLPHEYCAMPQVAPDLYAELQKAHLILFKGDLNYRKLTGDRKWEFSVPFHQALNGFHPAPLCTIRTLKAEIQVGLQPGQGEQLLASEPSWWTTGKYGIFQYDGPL
# UniProt Q9HAB8: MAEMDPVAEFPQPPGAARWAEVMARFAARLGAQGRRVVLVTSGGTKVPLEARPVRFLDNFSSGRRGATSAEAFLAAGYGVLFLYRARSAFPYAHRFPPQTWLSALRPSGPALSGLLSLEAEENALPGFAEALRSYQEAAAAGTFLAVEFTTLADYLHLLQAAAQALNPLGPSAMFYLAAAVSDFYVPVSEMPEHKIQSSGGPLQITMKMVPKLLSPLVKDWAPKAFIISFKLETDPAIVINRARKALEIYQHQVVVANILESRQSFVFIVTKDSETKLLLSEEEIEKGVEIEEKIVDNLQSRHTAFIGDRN
# Compound: Nc1ncnc2c1ncn2[C@@H]1O[C@H](COP(=O)(O)OP(=O)(O)OP(=O)(O)O)[C@@H](O)[C@H]1O [adenosine triphosphate]
# Experiment: NP40-soluble protein abundance relative to vehicle (solubility fold change) (ratio); higher = more soluble protein in presence of ATP
# Procedure, shortened: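 Each value is a fold change relative to the detergent-processed vehicle, calculated per replicate from vsn-normalised intensities. Jurkat crude lysate received eight concentrations (0.1 to 10 mM) for 10 min at room temperature and 3 min at 37 °C, then was solubilised in 0.8% NP40 with benzonase (60 min, 4 °C). The ultracentrifuged supernatant was TMT-labelled and run by LC-MS/MS in three independent experiments.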
Target,NP40-soluble protein abundance (concentration: 0.1mM),NP40-soluble protein abundance (concentration: 0.5mM),NP40-soluble protein abundance (concentration: 1mM),NP40-soluble protein abundance (concentration: 2mM),NP40-soluble protein abundance (concentration: 4mM),NP40-soluble protein abundance (concentration: 6mM),NP40-soluble protein abundance (concentration: 8mM),NP40-soluble protein abundance (concentration: 10mM)
UniProt Q9H6W3,1.07 ± 0.069,1.14 ± 0.007,1.2 ± 0.019,1.25 ± 0.029,1.31 ± 0.063,1.46 ± 0.1,1.54 ± 0.11,1.73 ± 0.093
WDR55 (UniProt Q9H6Y2),1.1 ± 0.022,1.1 ± 0.14,–,–,–,–,–,–
UniProt Q9GZP9 and related entries,0.982 ± 0.071,0.939 ± 0.057,0.935 ± 0.091,0.903 ± 0.083,0.946 ± 0.13,0.887 ± 0.12,0.944 ± 0.068,0.916 ± 0.11
AGO4 (UniProt Q9HCK5),1.03 ± 0.07,1.01 ± 0.16,–,–,–,–,–,–
L2HGDH (UniProt Q9H9P8),1.02 ± 0.034,1.1 ± 0.049,–,–,–,–,–,–
UniProt Q9NNW7 and related entries,1.01 ± 0.043,0.964 ± 0.039,1.01 ± 0.04,0.942 ± 0.011,0.983 ± 0.067,0.951 ± 0.02,0.949 ± 0.057,0.958 ± 0.1
CWC22 (UniProt Q9HCG8),0.989 ± 0.019,0.953 ± 0.12,–,–,–,–,–,–
BOLA2 (UniProt Q9H3K6),0.901 ± 0.053,0.888 ± 0.086,–,–,–,–,–,–
UniProt Q9H974 and related entries,1.06 ± 0.071,1.02 ± 0.06,1.03 ± 0.044,1 ± 0.035,1 ± 0.029,0.996 ± 0.044,1.02 ± 0.016,0.991 ± 0.025
UniProt Q9HDC9,1.02 ± 0.073,1.02 ± 0.075,1.03 ± 0.13,1 ± 0.11,0.936 ± 0.039,0.903 ± 0.13,0.953 ± 0.06,0.953 ± 0.079
TM9SF3 (UniProt Q9HD45),1.05 ± 0.085,1.04 ± 0.073,1.04 ± 0.12,1.03 ± 0.1,1.01 ± 0.079,0.946 ± 0.12,1.05 ± 0.099,1.01 ± 0.097
ATP13A1 (UniProt Q9HD20),1.05 ± 0.084,1.05 ± 0.076,1.01 ± 0.1,1 ± 0.06,1.01 ± 0.064,0.951 ± 0.086,1 ± 0.041,0.978 ± 0.03
RDH14 (UniProt Q9HBH5),1.03 ± 0.031,1.03 ± 0.013,0.997 ± 0.049,1.01 ± 0.0098,1.03 ± 0.043,0.998 ± 0.056,1.05 ± 0.037,1.01 ± 0.035
UniProt Q9H993,1.08 ± 0.085,1.06 ± 0.049,1.08 ± 0.068,1.05 ± 0.06,1.02 ± 0.039,0.991 ± 0.072,1.04 ± 0.047,1.01 ± 0.053
PPCS (UniProt Q9HAB8),1.03 ± 0.039,0.987 ± 0.02,–,–,–,–,–,–

# 2 records picked at random from the list so far, as already listed:
Target,NP40-soluble protein abundance (concentration: 0.1mM),NP40-soluble protein abundance (concentration: 0.5mM),NP40-soluble protein abundance (concentration: 1mM),NP40-soluble protein abundance (concentration: 2mM),NP40-soluble protein abundance (concentration: 4mM),NP40-soluble protein abundance (concentration: 6mM),NP40-soluble protein abundance (concentration: 8mM),NP40-soluble protein abundance (concentration: 10mM)
L2HGDH (UniProt Q9H9P8),1.02 ± 0.034,1.1 ± 0.049,–,–,–,–,–,–
TM9SF3 (UniProt Q9HD45),1.05 ± 0.085,1.04 ± 0.073,1.04 ± 0.12,1.03 ± 0.1,1.01 ± 0.079,0.946 ± 0.12,1.05 ± 0.099,1.01 ± 0.097

# — the supplement of paper PMC6411743
